No constants are given. Whether binding was seen depends on the method and setting. Some entries that bind do so weakly or less than the wild type. Tags and fused reporters may be left off the sequences shown.
Tests used:
Assay in all cases: two-hybrid; yeast two-hybrid with pBTM116 (LexA) and pACT2 fusions; β-galactosidase activity in cell extracts, in triplicate from at least three clones
[1] = molecular target: T1, Mcm10 ID (internal deletion of residues 100–150, two-hybrid fusion) (S. cerevisiae) (UniProt P32354)
T1 sequence: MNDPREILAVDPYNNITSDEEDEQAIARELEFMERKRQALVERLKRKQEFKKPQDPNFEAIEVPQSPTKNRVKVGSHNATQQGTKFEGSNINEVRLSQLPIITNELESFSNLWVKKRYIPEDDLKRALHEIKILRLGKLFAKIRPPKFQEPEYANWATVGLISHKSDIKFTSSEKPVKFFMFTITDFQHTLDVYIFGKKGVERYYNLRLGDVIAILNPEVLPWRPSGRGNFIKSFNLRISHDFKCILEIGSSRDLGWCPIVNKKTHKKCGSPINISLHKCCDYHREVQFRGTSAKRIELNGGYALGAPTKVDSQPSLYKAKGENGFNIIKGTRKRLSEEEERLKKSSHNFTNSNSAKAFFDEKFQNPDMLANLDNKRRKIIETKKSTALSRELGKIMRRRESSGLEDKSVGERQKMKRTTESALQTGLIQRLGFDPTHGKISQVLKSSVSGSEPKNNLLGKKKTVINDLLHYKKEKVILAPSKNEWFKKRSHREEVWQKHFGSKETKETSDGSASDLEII

[2] = molecular target: T2, Mcm10 L242Y (two-hybrid fusion) (S. cerevisiae) (UniProt P32354)
T2 sequence: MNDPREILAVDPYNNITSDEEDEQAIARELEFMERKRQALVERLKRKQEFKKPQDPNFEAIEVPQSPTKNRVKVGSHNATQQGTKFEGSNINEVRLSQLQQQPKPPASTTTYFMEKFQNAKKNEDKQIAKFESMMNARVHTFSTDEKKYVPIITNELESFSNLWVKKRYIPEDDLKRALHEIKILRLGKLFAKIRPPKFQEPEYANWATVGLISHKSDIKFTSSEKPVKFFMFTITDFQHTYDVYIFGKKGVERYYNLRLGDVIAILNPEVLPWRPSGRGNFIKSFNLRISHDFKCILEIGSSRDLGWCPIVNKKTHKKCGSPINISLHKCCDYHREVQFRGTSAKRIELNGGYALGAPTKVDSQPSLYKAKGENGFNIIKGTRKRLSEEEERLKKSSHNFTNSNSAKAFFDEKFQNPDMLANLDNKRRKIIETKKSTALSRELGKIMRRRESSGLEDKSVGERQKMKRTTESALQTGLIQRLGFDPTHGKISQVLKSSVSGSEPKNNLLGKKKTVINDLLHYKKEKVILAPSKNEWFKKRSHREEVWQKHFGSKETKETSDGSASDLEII

[3] = molecular target: T3, Mcm10Δ120 (LexA fusion) (S. cerevisiae) (UniProt P32354)
T3 sequence: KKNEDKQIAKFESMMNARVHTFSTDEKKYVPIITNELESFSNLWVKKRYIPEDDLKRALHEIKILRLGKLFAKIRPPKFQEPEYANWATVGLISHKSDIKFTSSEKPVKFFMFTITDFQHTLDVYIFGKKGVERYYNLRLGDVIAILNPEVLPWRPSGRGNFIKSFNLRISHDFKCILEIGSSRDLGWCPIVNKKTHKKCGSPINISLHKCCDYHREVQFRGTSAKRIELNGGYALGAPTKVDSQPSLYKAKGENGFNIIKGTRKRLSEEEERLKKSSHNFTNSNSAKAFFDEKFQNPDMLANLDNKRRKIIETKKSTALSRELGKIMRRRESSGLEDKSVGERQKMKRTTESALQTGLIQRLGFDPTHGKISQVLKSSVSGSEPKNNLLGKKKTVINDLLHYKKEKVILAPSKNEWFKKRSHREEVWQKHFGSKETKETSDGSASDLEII

[4] = molecular target: T4, Mcm10Δ130 (LexA fusion) (S. cerevisiae) (UniProt P32354)
T4 sequence: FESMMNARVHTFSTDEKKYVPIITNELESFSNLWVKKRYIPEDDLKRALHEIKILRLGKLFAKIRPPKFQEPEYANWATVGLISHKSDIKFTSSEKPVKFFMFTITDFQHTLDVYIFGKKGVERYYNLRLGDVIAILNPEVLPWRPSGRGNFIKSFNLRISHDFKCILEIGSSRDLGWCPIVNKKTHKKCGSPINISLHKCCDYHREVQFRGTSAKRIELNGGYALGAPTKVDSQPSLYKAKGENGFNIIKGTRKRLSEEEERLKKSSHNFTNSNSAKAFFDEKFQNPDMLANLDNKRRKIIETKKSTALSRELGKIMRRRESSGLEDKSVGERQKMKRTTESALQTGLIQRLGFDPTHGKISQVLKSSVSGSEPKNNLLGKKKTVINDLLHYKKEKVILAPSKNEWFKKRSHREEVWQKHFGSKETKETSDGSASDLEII

[5] = molecular target: T5, Mcm10Δ140 (LexA fusion) (S. cerevisiae) (UniProt P32354)
T5 sequence: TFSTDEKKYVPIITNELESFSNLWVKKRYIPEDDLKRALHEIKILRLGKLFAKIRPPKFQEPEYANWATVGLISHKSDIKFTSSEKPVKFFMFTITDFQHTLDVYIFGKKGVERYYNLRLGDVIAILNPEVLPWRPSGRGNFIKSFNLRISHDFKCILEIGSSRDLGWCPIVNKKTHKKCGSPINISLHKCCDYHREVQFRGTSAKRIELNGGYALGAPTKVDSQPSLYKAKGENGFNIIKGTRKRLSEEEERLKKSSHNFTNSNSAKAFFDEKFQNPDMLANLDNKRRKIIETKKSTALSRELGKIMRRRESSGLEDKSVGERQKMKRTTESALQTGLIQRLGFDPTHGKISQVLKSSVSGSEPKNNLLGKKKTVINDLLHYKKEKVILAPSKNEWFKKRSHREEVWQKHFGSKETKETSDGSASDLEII

binding [1]: binds
binding [2]: binds weakly
binding [3]: binds
binding [4]: binds
binding [5]: binds
B1: Mec3 (pACT2 fusion, wild type) (protein, UniProt Q02574 1-474)
chain: MKLKLIVNGCEAPDDYKLLRTTINTVASLRKTAILRFNSERLTIISTPKSSLNSSNNGTILRGDTGQLWCTIPHDVFRLYTVISARELNTITMECNCDSLLSVFKRYDRVMNQGSSSNMTIKLQSMPEWNTNNGTLSGGTAGGVDTTSKPNPICALGITFEEIVHTSGPNDAIVMNGGVDEHNGLPTTVGTGNLLASNKVIMHSFKVPVKLLFRAQDTRIQEPMINYIQLMMYKLPPISGEFGSAFHGFIRRVERYSNVNHIHLMGVKKKEHGNEGDDVELKIIVNELDWHLEICWNGPLDSVIQRQEGLTDNPSQNQHIDTDGRQEEGSLPIIEADKPMSSLYTNTRDREMEENIRYDEDLLRIEDSSIADTRGNIYTADTSGDTEFNDISVMVEKAEQESSSTHEVIIRCKDWKVCSKLYAAFEEVVLAISHDESCVFHCSLDRGSLEDSEDVEKPRERGQIIYYIARSKGL

From paper PMC4117747, “The N-terminus of Mcm10 is important for interaction with the 9-1-1 clamp and in resistance to DNA damage” (Nucleic Acids Research, 2014)
